According to article PMC3066133:

target: HA-RI332, C-terminally truncated form of ribophorin-I with an HA epitope; experiment: affinity purification with mass spectrometry

| binding | Binder |
| --- | --- |
| binds | ERp72 (protein, UniProt P13667 21-645) VAGAEGPDEDSSNRENAIEDEEEEEEEDDDEEEDDLEVKEENGVLVLNDANFDNFVADKDTVLLEFYAPWCGHCKQFAPEYEKIANILKDKDPPIPVAKIDATSASVLASRFDVSGYPTIKILKKGQAVDYEGSRTQEEIVAKVREVSQPDWTPPPEVTLVLTKENFDEVVNDADIILVEFYAPWCGHCKKLAPEYEKAAKELSKRSPPIPLAKVDATAETDLAKRFDVSGYPTLKIFRKGRPYDYNGPREKYGIVDYMIEQSGPPSKEILTLKQVQEFLKDGDDVIIIGVFKGESDPAYQQYQDAANNLREDYKFHHTFSTEIAKFLKVSQGQLVVMQPEKFQSKYEPRSHMMDVQGSTQDSAIKDFVLKYALPLVGHRKVSNDAKRYTRRPLVVVYYSVDFSFDYRAATQFWRSKVLEVAKDFPEYTFAIADEEDYAGEVKDLGLSESGEDVNAAILDESGKKFAMEPEEFDSDTLREFVTAFKKGKLKPVIKSQPVPKNNKGPVKVVVGKTFDSIVMDPKKDVLIEFYAPWCGHCKQLEPVYNSLAKKYKGQKGLVIAKMDATANDVPSDRYKVEGFPTIYFAPSGDKKNPVKFEGGDRDLEHLSKFIEEHATKLSRTKEEL |
| binds | ERp5 (protein, UniProt Q15084 20-440) LYSSSDDVIELTPSNFNREVIQSDSLWLVEFYAPWCGHCQRLTPEWKKAATALKDVVKVGAVDADKHHSLGGQYGVQGFPTIKIFGSNKNRPEDYQGGRTGEAIVDAALSALRQLVKDRLGGRSGGYSSGKQGRSDSSSKKDVIELTDDSFDKNVLDSEDVWMVEFYAPWCGHCKNLEPEWAAAASEVKEQTKGKVKLAAVDATVNQVLASRYGIRGFPTIKIFQKGESPVDYDGGRTRSDIVSRALDLFSDNAPPPELLEIINEDIAKRTCEEHQLCVVAVLPHILDTGAAGRNSYLEVLLKLADKYKKKMWGWLWTEAGAQSELETALGIGGFGYPAMAAINARKMKFALLKGSFSEQGINEFLRELSFGRGSTAPVGGGAFPTIVEREPWDGRDGELPVEDDIDLSDVELDDLGKDEL |
| binds | OS9 (protein, UniProt Q13438 26-667) GGVGSLNLEELSEMRYGIEILPLPVMGGQSQSSDVVIVSSKYKQRYECRLPAGAIHFQREREEETPAYQGPGIPELLSPMRDAPCLLKTKDWWTYEFCYGRHIQQYHMEDSEIKGEVLYLGYYQSAFDWDDETAKASKQHRLKRYHSQTYGNGSKCDLNGRPREAEVRFLCDEGAGISGDYIDRVDEPLSCSYVLTIRTPRLCPHPLLRPPPSAAPQAILCHPSLQPEEYMAYVQRQADSKQYGDKIIEELQDLGPQVWSETKSGVAPQKMAGASPTKDDSKDSDFWKMLNEPEDQAPGGEEVPAEEQDPSPEAADSASGAPNDFQNNVQVKVIRSPADLIRFIEELKGGTKKGKPNIGQEQPVDDAAEVPQREPEKERGDPERQREMEEEEDEDEDEDEDEDERQLLGEFEKELEGILLPSDRDRLRSEVKAGMERELENIIQETEKELDPDGLKKESERDRAMLALTSTLNKLIKRLEEKQSPELVKKHKKKRVVPKKPPPSPQPTEEDPEHRVRVRVTKLRLGGPNQDLTVLEMKRENPQLKQIEGLVKELLEREGLTAAGKIEIKIVRPWAEGTEEGARWLTDEDTRNLKEIFFNILVPGAEEAQKERQRQKELESNYRRVWGSPGGEGTGDLDEFDF |
| binds | ERdj5 (protein, UniProt Q8IXB1 33-793) DQDFYSLLGVSKTASSREIRQAFKKLALKLHPDKNPNNPNAHGDFLKINRAYEVLKDEDLRKKYDKYGEKGLEDNQGGQYESWNYYRYDFGIYDDDPEIITLERREFDAAVNSGELWFVNFYSPGCSHCHDLAPTWRDFAKEVDGLLRIGAVNCGDDRMLCRMKGVNSYPSLFIFRSGMAPVKYHGDRSKESLVSFAMQHVRSTVTELWTGNFVNSIQTAFAAGIGWLITFCSKGGDCLTSQTRLRLSGMLDGLVNVGWMDCATQDNLCKSLDITTSTTAYFPPGATLNNKEKNSILFLNSLDAKEIYLEVIHNLPDFELLSANTLEDRLAHHRWLLFFHFGKNENSNDPELKKLKTLLKNDHIQVGRFDCSSAPDICSNLYVFQPSLAVFKGQGTKEYEIHHGKKILYDILAFAKESVNSHVTTLGPQNFPANDKEPWLVDFFAPWCPPCRALLPELRRASNLLYGQLKFGTLDCTVHEGLCNMYNIQAYPTTVVFNQSNIHEYEGHHSAEQILEFIEDLMNPSVVSLTPTTFNELVTQRKHNEVWMVDFYSPWCHPCQVLMPEWKRMARTLTGLINVGSIDCQQYHSFCAQENVQRYPEIRFFPPKSNKAYHYHSYNGWNRDAYSLRIWGLGFLPQVSTDLTPQTFSEKVLQGKNHWVIDFYAPWCGPCQNFAPEFELLARMIKGKVKAGKVDCQAYAQTCQKAGIRAYPTVKFYFYERAKRNFQEEQINTRDAKAIAALISEKLETLRNQGKRNKDEL |

These are yes or no findings as the source states them, for the method shown. In cells and extracts the contact can be indirect. A yes stands for co-enrichment or nearness to the bait. Other partners may have been found.
